The list shows a part of the results.
Assays:
Experiment in all cases: log2 fold change, soluble protein after heating vs DMSO (PISA); higher = thermal stabilisation; K562 lysate, 10 uM; active = over 0.2 and 3.5 SD of the protein, either way, in both replicates (recomputed)
nilotinib = compound: Cc1cn(-c2cc(NC(=O)c3ccc(C)c(Nc4nccc(-c5cccnc5)n4)c3)cc(C(F)(F)F)c2)cn1 [nilotinib]
Method in brief: (§1)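 K562 pellets were dounce-homogenised in PBS pH 7.4 containing 1 mM MgCl2, and the crude extract, at 1 mg/mL protein, was exposed to 10 μM compound for 30 min. Aliquots were heated for 3 min across 48°C-58°C, pooled, brought to 0.5% NP-40 at 4°C and spun at 21,000xg for 90 min, with the supernatant taken as soluble protein. TMTpro 16plex LC-MS/MS with equalised channel sums quantified that protein. Values are log-two fold changes in thermal stability relative to solvent controls, taken from duplicates.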

By UniProt entry, the sequences of proteins in these tests, tags left out. Where a name states a change or a piece, a line headed by the entry shows the natural chain unless it says otherwise.
UniProt P0DPB6, whole entry, looked up: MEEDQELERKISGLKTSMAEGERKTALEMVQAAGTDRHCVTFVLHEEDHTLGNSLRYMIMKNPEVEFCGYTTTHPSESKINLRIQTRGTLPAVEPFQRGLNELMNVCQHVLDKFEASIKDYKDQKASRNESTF
UniProt Q9NVU0: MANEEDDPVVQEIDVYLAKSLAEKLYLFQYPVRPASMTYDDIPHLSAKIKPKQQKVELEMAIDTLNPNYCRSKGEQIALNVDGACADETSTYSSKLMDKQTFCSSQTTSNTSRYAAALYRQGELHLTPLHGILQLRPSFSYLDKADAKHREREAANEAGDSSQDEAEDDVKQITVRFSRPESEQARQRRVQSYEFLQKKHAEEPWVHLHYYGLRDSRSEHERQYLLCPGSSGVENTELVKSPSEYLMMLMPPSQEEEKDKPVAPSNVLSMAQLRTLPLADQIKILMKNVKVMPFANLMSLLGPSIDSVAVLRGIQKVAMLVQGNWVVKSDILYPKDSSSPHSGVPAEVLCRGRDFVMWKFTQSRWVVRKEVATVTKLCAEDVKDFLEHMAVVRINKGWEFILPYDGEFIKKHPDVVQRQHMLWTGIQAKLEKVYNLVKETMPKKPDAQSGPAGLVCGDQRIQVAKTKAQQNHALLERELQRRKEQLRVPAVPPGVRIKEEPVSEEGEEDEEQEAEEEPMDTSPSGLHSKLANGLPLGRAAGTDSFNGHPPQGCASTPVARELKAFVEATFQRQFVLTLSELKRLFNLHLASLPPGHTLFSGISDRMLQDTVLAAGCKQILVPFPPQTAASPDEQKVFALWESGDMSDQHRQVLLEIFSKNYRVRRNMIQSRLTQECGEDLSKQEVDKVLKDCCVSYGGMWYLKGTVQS
UniProt Q9HCU8: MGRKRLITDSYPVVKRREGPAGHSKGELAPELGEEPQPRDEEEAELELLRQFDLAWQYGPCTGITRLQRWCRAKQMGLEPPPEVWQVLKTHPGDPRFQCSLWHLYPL
UniProt Q9BY77: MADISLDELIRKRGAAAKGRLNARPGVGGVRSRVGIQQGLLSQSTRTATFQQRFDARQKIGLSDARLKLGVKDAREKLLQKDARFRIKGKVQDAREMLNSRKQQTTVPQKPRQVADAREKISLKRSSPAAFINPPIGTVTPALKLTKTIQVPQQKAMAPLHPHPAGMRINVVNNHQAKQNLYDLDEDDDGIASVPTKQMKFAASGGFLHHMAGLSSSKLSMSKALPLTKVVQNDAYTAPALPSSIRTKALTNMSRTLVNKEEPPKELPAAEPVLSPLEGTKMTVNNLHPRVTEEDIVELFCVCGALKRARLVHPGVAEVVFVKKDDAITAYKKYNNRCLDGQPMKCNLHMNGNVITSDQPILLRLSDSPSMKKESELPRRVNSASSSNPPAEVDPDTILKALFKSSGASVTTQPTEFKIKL
UniProt Q9Y2Y1: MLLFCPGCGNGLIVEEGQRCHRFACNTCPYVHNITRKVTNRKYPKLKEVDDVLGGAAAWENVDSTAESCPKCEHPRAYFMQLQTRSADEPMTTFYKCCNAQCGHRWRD
UniProt Q14181: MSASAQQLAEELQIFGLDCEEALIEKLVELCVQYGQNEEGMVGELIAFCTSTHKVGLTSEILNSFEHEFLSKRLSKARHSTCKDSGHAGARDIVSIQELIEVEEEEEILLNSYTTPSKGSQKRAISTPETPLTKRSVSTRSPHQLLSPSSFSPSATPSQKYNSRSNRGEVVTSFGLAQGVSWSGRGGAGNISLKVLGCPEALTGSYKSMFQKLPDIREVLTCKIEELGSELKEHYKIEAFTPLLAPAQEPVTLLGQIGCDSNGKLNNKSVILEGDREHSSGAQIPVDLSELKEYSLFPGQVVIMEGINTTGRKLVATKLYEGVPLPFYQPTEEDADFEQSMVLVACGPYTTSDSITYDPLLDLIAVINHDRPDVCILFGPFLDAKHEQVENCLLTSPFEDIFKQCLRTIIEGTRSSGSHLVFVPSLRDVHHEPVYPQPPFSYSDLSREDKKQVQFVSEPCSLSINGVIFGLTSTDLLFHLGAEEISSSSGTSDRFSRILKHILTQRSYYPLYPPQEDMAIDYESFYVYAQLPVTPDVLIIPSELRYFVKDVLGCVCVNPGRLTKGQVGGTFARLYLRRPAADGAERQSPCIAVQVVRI
UniProt A5A3E0, whole entry, looked up: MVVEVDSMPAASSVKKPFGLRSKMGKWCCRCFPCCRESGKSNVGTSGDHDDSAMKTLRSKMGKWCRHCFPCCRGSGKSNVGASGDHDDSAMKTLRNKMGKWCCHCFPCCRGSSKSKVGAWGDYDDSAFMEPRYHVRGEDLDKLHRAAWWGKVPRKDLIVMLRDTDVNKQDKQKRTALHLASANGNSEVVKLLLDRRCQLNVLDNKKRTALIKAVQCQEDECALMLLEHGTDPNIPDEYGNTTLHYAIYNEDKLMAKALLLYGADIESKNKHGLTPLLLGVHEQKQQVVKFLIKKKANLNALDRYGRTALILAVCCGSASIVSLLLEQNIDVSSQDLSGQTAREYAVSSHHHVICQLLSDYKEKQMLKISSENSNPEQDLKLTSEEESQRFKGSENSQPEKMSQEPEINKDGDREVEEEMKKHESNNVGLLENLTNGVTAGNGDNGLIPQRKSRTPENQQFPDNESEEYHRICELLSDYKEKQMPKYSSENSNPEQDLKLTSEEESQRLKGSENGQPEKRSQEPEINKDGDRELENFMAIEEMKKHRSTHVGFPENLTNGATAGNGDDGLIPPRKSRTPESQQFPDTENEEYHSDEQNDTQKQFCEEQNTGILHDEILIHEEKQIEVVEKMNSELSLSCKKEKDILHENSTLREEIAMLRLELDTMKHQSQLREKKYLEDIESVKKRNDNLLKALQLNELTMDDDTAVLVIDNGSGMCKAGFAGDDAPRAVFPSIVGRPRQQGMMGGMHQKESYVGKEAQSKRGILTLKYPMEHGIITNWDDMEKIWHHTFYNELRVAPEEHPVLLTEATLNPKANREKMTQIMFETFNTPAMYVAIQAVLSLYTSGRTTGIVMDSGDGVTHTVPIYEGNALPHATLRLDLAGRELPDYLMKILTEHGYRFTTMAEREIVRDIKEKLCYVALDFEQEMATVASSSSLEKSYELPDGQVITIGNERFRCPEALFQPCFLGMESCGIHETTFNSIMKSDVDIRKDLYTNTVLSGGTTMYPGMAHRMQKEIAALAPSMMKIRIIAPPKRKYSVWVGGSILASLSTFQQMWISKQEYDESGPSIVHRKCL
UniProt P56282: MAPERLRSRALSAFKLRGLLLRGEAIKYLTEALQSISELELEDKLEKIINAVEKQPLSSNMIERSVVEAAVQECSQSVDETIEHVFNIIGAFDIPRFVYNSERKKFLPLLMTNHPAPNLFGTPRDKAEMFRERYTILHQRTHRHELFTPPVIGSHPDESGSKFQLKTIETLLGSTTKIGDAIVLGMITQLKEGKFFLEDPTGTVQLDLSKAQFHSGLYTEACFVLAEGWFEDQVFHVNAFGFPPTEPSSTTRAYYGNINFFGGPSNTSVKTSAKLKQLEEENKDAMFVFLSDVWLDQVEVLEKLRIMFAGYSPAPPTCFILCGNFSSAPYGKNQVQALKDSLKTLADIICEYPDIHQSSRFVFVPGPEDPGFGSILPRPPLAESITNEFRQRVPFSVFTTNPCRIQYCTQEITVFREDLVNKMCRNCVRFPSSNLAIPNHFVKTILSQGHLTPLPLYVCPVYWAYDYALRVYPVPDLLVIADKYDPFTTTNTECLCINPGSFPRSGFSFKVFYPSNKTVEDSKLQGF
UniProt Q8NBL1: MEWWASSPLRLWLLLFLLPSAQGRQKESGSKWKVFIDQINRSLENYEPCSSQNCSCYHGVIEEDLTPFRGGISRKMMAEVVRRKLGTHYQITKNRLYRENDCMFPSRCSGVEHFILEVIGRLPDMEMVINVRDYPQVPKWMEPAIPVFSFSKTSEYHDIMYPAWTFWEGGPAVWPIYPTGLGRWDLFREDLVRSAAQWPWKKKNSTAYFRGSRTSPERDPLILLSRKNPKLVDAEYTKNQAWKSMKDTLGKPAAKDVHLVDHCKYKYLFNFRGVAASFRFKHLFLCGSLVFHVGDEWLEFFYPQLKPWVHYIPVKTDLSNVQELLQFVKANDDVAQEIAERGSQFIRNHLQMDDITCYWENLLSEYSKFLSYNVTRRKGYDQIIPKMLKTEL
UniProt Q8N490: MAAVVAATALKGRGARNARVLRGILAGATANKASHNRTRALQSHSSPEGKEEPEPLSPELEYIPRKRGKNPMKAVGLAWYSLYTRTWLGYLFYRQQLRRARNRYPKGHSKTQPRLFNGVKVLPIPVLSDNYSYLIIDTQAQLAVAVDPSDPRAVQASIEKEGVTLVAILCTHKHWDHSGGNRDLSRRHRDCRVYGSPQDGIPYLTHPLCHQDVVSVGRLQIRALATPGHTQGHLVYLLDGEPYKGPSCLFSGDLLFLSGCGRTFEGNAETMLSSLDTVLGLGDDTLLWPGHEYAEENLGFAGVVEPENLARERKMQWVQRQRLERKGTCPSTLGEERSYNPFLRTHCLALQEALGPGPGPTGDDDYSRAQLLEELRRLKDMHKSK
UniProt Q9HAB8: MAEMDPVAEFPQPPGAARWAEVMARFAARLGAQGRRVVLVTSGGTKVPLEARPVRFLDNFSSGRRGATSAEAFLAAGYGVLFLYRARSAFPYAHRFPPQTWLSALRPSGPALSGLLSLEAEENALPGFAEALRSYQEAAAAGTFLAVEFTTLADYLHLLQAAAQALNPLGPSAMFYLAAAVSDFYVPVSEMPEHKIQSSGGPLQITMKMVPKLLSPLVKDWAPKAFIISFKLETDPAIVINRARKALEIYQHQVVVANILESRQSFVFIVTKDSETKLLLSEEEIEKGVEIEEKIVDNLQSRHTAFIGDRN
UniProt Q7Z4H8: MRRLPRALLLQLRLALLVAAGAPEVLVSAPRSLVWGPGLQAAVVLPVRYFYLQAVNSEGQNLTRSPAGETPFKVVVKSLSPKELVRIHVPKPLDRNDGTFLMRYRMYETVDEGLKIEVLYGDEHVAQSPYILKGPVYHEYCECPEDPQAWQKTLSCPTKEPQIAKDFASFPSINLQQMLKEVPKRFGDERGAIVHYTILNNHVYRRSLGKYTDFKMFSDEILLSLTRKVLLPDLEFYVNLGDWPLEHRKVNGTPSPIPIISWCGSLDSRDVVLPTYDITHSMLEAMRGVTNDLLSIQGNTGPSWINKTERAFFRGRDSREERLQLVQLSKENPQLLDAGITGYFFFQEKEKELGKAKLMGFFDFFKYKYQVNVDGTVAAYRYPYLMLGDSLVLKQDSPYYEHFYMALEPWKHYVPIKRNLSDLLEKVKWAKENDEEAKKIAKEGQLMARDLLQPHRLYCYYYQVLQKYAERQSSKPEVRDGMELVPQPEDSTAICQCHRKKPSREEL
UniProt O94903: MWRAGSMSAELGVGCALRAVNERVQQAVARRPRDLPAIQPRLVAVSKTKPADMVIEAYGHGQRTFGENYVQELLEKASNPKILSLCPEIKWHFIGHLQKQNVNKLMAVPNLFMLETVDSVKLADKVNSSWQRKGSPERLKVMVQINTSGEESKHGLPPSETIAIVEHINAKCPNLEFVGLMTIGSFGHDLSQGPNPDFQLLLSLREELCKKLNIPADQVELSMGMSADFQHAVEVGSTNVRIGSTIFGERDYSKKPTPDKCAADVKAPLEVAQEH
UniProt Q8IWE5: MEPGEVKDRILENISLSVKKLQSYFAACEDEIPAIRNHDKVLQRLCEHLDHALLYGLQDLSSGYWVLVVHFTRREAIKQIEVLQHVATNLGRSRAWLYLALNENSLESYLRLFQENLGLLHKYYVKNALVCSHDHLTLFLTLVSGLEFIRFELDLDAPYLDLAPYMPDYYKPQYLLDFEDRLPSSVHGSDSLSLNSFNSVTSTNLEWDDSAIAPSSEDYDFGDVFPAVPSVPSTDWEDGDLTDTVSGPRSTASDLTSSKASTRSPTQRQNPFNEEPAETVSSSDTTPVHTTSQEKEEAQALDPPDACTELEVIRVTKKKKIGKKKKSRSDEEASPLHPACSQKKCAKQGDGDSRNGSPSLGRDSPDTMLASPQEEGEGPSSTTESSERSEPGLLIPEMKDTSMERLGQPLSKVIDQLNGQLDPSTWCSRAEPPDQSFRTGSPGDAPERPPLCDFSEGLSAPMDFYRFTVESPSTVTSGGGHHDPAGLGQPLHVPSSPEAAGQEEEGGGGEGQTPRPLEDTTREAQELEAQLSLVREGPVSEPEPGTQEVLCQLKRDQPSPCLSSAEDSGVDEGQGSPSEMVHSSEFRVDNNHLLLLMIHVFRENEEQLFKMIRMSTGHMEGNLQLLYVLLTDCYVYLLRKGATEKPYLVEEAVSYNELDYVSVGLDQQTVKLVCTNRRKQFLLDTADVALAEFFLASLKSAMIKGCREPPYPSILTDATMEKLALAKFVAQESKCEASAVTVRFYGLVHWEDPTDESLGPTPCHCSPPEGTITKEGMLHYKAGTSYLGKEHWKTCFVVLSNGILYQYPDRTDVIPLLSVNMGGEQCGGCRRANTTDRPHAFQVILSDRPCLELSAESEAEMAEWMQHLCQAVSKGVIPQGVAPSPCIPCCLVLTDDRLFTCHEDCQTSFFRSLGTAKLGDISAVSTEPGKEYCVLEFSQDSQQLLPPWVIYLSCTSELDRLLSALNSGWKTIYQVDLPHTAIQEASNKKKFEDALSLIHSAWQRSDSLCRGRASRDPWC

[1] = compound: Cc1nc(Nc2n[nH]c3c2CN(C(=O)N[C@H](CN(C)C)c2ccccc2)C3(C)C)c2sccc2n1
Method in brief: as §1

dasatinib = compound: Cc1nc(Nc2ncc(C(=O)Nc3c(C)cccc3Cl)s2)cc(N2CCN(CCO)CC2)n1 [dasatinib]
Method in brief: as §1

[2] = compound: Cc1ncc(-c2ccnc(Nc3ccc(S(C)(=O)=O)cc3)n2)n1C(C)C
Method in brief: as §1

[3] = compound: Cn1cc(-c2ccc3c(c2)CCN3C(=O)Cc2cccc(C(F)(F)F)c2)c2c(N)ncnc21
Method in brief: as §1

quisinostat = compound: Cn1cc(CNCC2CCN(c3ncc(C(=O)NO)cn3)CC2)c2ccccc21 [quisinostat]
Method in brief: as §1

tipifarnib = compound: Cn1cncc1[C@@](N)(c1ccc(Cl)cc1)c1ccc2c(c1)c(-c1cccc(Cl)c1)cc(=O)n2C [tipifarnib]
Method in brief: as §1

[4] = compound: NC(=O)Nc1cc(-c2cccc(F)c2)sc1C(=O)N[C@H]1CCCNC1
Method in brief: as §1

[5] = compound: NC(=O)c1cnc(N[C@@H]2CCCC[C@@H]2N)nc1Nc1cccc(-n2nccn2)c1
Method in brief: as §1

[6] = compound: NC1(c2ccc(-c3nc4ccn5c(=O)[nH]nc5c4cc3-c3ccccc3)cc2)CCC1
Method in brief: as §1

[7] = compound: NCC(=O)Nc1ccc(-n2nc(C(F)(F)F)cc2-c2ccc3c(ccc4ccccc43)c2)cc1
Method in brief: as §1

vorinostat = compound: O=C(CCCCCCC(=O)Nc1ccccc1)NO [vorinostat]
Method in brief: as §1

silmitasertib = compound: O=C(O)c1ccc2c(c1)nc(Nc1cccc(Cl)c1)c1ccncc12 [silmitasertib]
Method in brief: as §1

[8] = compound: O=C1NC(=O)C(c2cnc3ccccn23)=C1c1cn2c3c(cc(F)cc13)CN(C(=O)N1CCCCC1)CC2
Method in brief: as §1

entospletinib = compound: c1cn2cc(-c3ccc4cn[nH]c4c3)nc(Nc3ccc(N4CCOCC4)cc3)c2n1 [entospletinib]
Method in brief: as §1

Measured: log2 fold change

POLR2I (UniProt P36954)
inactive: nilotinib 0.065 | [1] 0.061 | dasatinib -0.164 | [2] 0.093 | [3] -0.034 | quisinostat 0.302 | tipifarnib 0.085 | [4] -0.223 | [5] -0.068 | [6] 0.065 | [7] -0.092 | vorinostat 0.122 | silmitasertib 0.101 | [8] 0.009

POLR1D (UniProt P0DPB6)
inactive: nilotinib -0.021 | [1] -0.021 | dasatinib 0.015 | [2] -0.039 | [3] -0.013 | quisinostat -0.039 | tipifarnib 0.07 | [4] 0.054 | [5] 0.013 | [6] 0.01 | [7] -0.027 | vorinostat -0.171 | silmitasertib -0.046 | [8] 0.027 | entospletinib 0.005

POLR3E (UniProt Q9NVU0)
inactive: nilotinib 0.017 | [1] -0.054 | dasatinib -0.035 | [2] -0.018 | [3] 0.018 | quisinostat -0.023 | tipifarnib 0.04 | [4] 0.037 | [5] 0.009 | [6] -0.001 | [7] -0.017 | silmitasertib -0.023 | [8] 0.027 | entospletinib -0.004
active: vorinostat -0.263

POLD4 (UniProt Q9HCU8)
inactive: nilotinib 0.083 | [1] 0 | dasatinib -0.011 | [2] 0.003 | [3] -0.025 | quisinostat 0.039 | tipifarnib -0.059 | [4] 0.013 | [5] 0.036 | [6] -0.007 | [7] -0.068 | vorinostat -0.027 | silmitasertib -0.029 | [8] -0.094 | entospletinib -0.063

POLDIP3 (UniProt Q9BY77)
inactive: nilotinib 0.158 | [1] 0.032 | dasatinib 0.027 | [2] -0.001 | [3] 0.02 | quisinostat -0.04 | tipifarnib -0.045 | [4] -0.021 | [5] -0.037 | [6] -0.001 | [7] 0.161 | vorinostat -0.09 | silmitasertib -0.006 | [8] -0.007

POLR3K (UniProt Q9Y2Y1)
inactive: nilotinib -0.022 | [1] 0.035 | dasatinib -0.108 | [2] -0.005 | [3] 0.049 | quisinostat -0.008 | tipifarnib 0.035 | [4] -0.012 | [5] 0.015 | [6] -0.009 | [7] 0.023 | vorinostat 0.038 | silmitasertib 0.024 | [8] 0.005 | entospletinib -0.011

POLR2E (UniProt P19388)
inactive: nilotinib -0.026 | [1] -0.001 | dasatinib -0.024 | [2] 0.009 | [3] -0.002 | quisinostat -0.003 | tipifarnib 0.003 | [4] -0.003 | [5] 0.017 | [6] 0.021 | [7] 0 | vorinostat -0.101 | silmitasertib 0.022 | [8] 0.059 | entospletinib -0.016

POLA2 (UniProt Q14181)
inactive: nilotinib 0.013 | [1] -0.005 | dasatinib 0 | [2] -0.033 | [3] -0.002 | quisinostat -0.028 | tipifarnib 0.003 | [4] 0.009 | [5] -0.023 | [6] 0 | [7] -0.006 | vorinostat -0.089 | silmitasertib 0.007 | [8] 0 | entospletinib 0.016

POTEF (UniProt A5A3E0)
inactive: nilotinib 0.021 | [1] -0.041 | dasatinib -0.016 | [2] 0.014 | [3] -0.029 | quisinostat -0.003 | tipifarnib 0.044 | [4] 0.004 | [5] 0 | [6] -0.016 | [7] 0.048 | vorinostat -0.073 | silmitasertib -0.048 | [8] 0.072 | entospletinib -0.023

PPIA (UniProt P62937)
inactive: nilotinib -0.037 | [1] 0.007 | dasatinib -0.008 | [2] -0.009 | [3] -0.015 | quisinostat 0.029 | tipifarnib 0.021 | [4] -0.007 | [5] 0.025 | [6] 0.007 | [7] -0.073 | vorinostat -0.024 | silmitasertib 0.027 | [8] -0.017 | entospletinib 0.019

POLD1 (UniProt P28340)
inactive: nilotinib 0.029 | [1] -0.004 | dasatinib -0.023 | [2] -0.011 | [3] 0.011 | quisinostat 0.01 | tipifarnib -0.011 | [4] 0.015 | [5] 0.006 | [6] 0.003 | [7] 0.016 | silmitasertib 0.016 | [8] 0.005 | entospletinib -0.009
active: vorinostat -0.245

POLR1A (UniProt O95602)
inactive: nilotinib -0.022 | [1] 0.103 | dasatinib -0.034 | [2] 0.075 | [3] 0.06 | quisinostat -0.005 | tipifarnib 0.02 | [4] 0.051 | [5] -0.008 | [6] -0.066 | [7] 0.027 | vorinostat 0.024 | silmitasertib 0.01 | [8] 0 | entospletinib 0.031

POLE2 (UniProt P56282)
inactive: nilotinib 0.02 | [1] 0.013 | dasatinib 0.007 | [2] 0.022 | [3] 0.015 | quisinostat -0.005 | tipifarnib 0.099 | [4] 0.037 | [5] -0.065 | [6] -0.157 | [7] -0.013 | vorinostat -0.053 | silmitasertib -0.003 | [8] -0.016 | entospletinib 0.007

Looked up one by one from above (2):
POTEF (UniProt A5A3E0)
inactive: nilotinib 0.021 | [1] -0.041 | dasatinib -0.016 | [2] 0.014 | [3] -0.029 | quisinostat -0.003 | tipifarnib 0.044 | [4] 0.004 | [5] 0 | [6] -0.016 | [7] 0.048 | vorinostat -0.073 | silmitasertib -0.048 | [8] 0.072 | entospletinib -0.023

POLD1 (UniProt P28340)
inactive: nilotinib 0.029 | [1] -0.004 | dasatinib -0.023 | [2] -0.011 | [3] 0.011 | quisinostat 0.01 | tipifarnib -0.011 | [4] 0.015 | [5] 0.006 | [6] 0.003 | [7] 0.016 | silmitasertib 0.016 | [8] 0.005 | entospletinib -0.009
active: vorinostat -0.245

Next part.

POGLUT1 (UniProt Q8NBL1)
inactive: nilotinib -0.01 | [1] -0.027 | dasatinib 0.005 | [2] 0.019 | [3] 0.014 | quisinostat 0.073 | tipifarnib 0.032 | [4] 0.005 | [5] -0.009 | [6] 0.049 | [7] -0.02 | vorinostat 0.078 | silmitasertib 0.058 | [8] 0.023 | entospletinib -0.029

POLRMT (UniProt O00411)
inactive: nilotinib -0.015 | [1] 0.076 | dasatinib -0.028 | [2] 0.039 | [3] 0.075 | quisinostat 0 | tipifarnib -0.042 | [4] -0.003 | [5] 0.012 | [6] 0.043 | [7] -0.01 | vorinostat -0.056 | silmitasertib -0.032 | [8] 0.071 | entospletinib -0.004

PNKD (UniProt Q8N490)
inactive: nilotinib -0.016 | [1] -0.022 | dasatinib -0.017 | [2] -0.002 | [3] -0.059 | quisinostat 0.064 | tipifarnib 0.163 | [4] 0.119 | [5] 0.026 | [6] -0.178 | [7] -0.012 | vorinostat 0.034 | silmitasertib -0.139 | [8] 0.029 | entospletinib -0.092

PPCS (UniProt Q9HAB8)
inactive: nilotinib -0.013 | [1] -0.014 | dasatinib 0.016 | [2] -0.053 | [3] 0.016 | quisinostat 0.024 | tipifarnib 0.052 | [4] 0.011 | [5] 0.004 | [6] -0.006 | [7] 0.049 | vorinostat 0.067 | silmitasertib 0.017 | [8] -0.001 | entospletinib 0.004

POGLUT3 (UniProt Q7Z4H8)
inactive: nilotinib 0.051 | [1] -0.003 | dasatinib 0.016 | [2] -0.01 | [3] -0.012 | quisinostat 0.048 | tipifarnib 0.003 | [4] -0.02 | [5] 0.007 | [6] 0.029 | [7] 0.058 | vorinostat 0.117 | silmitasertib -0.049 | [8] -0.02 | entospletinib -0.021

PLPBP (UniProt O94903)
inactive: nilotinib 0.049 | [1] -0.016 | dasatinib 0.003 | [2] -0.036 | [3] -0.014 | quisinostat -0.116 | tipifarnib 0.062 | [4] -0.01 | [5] 0.012 | [6] -0.025 | [7] -0.091 | vorinostat 0.014 | silmitasertib 0.001 | [8] 0.009 | entospletinib -0.001

POLD2 (UniProt P49005)
inactive: nilotinib -0.019 | [1] -0.004 | dasatinib -0.018 | [2] -0.029 | [3] -0.021 | quisinostat 0.006 | tipifarnib -0.007 | [4] 0.026 | [5] -0.006 | [6] -0.006 | [7] 0.011 | vorinostat -0.124 | silmitasertib -0.018 | [8] 0.028 | entospletinib -0.038

PLEKHM2 (UniProt Q8IWE5)
inactive: nilotinib 0.036 | [1] -0.071 | dasatinib 0.075 | [2] -0.022 | [3] 0.063 | quisinostat -0.064 | tipifarnib 0.012 | [4] 0.003 | [5] 0.027 | [6] -0.153 | [7] -0.022 | vorinostat 0.081 | silmitasertib 0 | [8] -0.036 | entospletinib -0.003

From the supplement of paper PMC10849652
